Reference: PubChem BioAssay AID1159578 (Peter MacCallum Cancer Centre, 2015)
This is a random part of about 18,000 deposited reagents. About 1,030 of all reagents (5.7%) were called active. 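Inactive calls also include pools with fewer than 3300 nuclei, whose migration was not assessed.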 Raw values vary from plate to plate and are shown uncorrected. Entries without a mark were called inactive. Further read-outs or replicates are left out here.

- Test: 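Genome-wide hunt for genes controlling movement of lymphatic endothelial cells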 (primary screen)
- Cell system: human lymphatic endothelial cells
- Knock-down reagent: siRNA pool against human genes, 40 nM
- Duration: 48 h after transfection
- Detection: 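High-content imaging of dye-stained cells in a scratch assay measures filled wound area and nuclei per well; duplicate means given as ratio to mock and robust z-score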
- Scale: migration robust z-score: higher = faster migration into the scratch; nuclei per well: higher = more cells in the well
- Hit rule: 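Migration changed when robust z exceeds 2 or falls below -2 and mean nuclei number is at least 3300; otherwise not called changed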
- Meaning of the calls: active = migration changed; inactive = no migration change, or too few cells

{"gene":"SSTR4 (somatostatin receptor 4)","migration robust z-score":-0.94,"nuclei per well, duplicate mean":7180}
{"gene":"STAR (steroidogenic acute regulatory protein)","migration robust z-score":0.1,"nuclei per well, duplicate mean":5264}
{"gene":"UGT2A3 (UDP glucuronosyltransferase family 2 member A3)","migration robust z-score":-0.11,"nuclei per well, duplicate mean":6715}
{"gene":"CYP2D6","migration robust z-score":-0.31,"nuclei per well, duplicate mean":4612}
{"gene":"CENPS (centromere protein S)","migration robust z-score":-0.9,"nuclei per well, duplicate mean":6164}
{"gene":"EDEM1 (ER degradation enhancing alpha-mannosidase like protein 1)","migration robust z-score":0.52,"nuclei per well, duplicate mean":5831}
{"gene":"NID1 (nidogen 1)","migration robust z-score":1.68,"nuclei per well, duplicate mean":6898}
{"gene":"ECI1 (enoyl-CoA delta isomerase 1)","migration robust z-score":-1.45,"nuclei per well, duplicate mean":4928}
{"gene":"HMX1 (H6 family homeobox 1)","migration robust z-score":"-2.36 (active)","nuclei per well, duplicate mean":3674}
{"gene":"IL9 (interleukin 9)","migration robust z-score":-0.54,"nuclei per well, duplicate mean":4462}
{"gene":"ARHGAP44 (Rho GTPase activating protein 44)","migration robust z-score":0.88,"nuclei per well, duplicate mean":4414}
{"gene":"OR1A1 (olfactory receptor family 1 subfamily A member 1)","migration robust z-score":-0.08,"nuclei per well, duplicate mean":4602}
{"gene":"PRKCA (protein kinase C alpha)","migration robust z-score":0.13,"nuclei per well, duplicate mean":4596}
{"gene":"RASIP1 (Ras interacting protein 1)","migration robust z-score":1.25,"nuclei per well, duplicate mean":5440}
{"gene":"OR11G2 (olfactory receptor family 11 subfamily G member 2)","migration robust z-score":-0.18,"nuclei per well, duplicate mean":5399}
{"gene":"ATPAF1 (ATP synthase mitochondrial F1 complex assembly factor 1)","migration robust z-score":1.13,"nuclei per well, duplicate mean":5548}
{"gene":"PROKR1 (prokineticin receptor 1)","migration robust z-score":0.64,"nuclei per well, duplicate mean":4123}
{"gene":"SNX5 (sorting nexin 5)","migration robust z-score":0.29,"nuclei per well, duplicate mean":6262}
{"gene":"CASC3 (CASC3 exon junction complex subunit)","migration robust z-score":1.02,"nuclei per well, duplicate mean":7484}
{"gene":"IMPACT (impact RWD domain protein)","migration robust z-score":-0.02,"nuclei per well, duplicate mean":6262}
{"gene":"GPR107 (G protein-coupled receptor 107)","migration robust z-score":0.44,"nuclei per well, duplicate mean":6746}

Targets listed so far whose target name begins with P or p:
{"gene":"PRKCA (protein kinase C alpha)","migration robust z-score":0.13,"nuclei per well, duplicate mean":4596}
{"gene":"PROKR1 (prokineticin receptor 1)","migration robust z-score":0.64,"nuclei per well, duplicate mean":4123}
